Measured values reported in patent publication US9782412B2, “Preventive and/or therapeutic agent of immune disease” (TAIHO PHARMACEUTICAL CO., LTD., priority 2015, dated 2017).
At least one structure is not confirmed: it was looked up by name or label, or the drawing left a doubt.

Key:
EGFR/BTK = assay: BTK inhibition selectivity compared with EGFR kinase inhibitory activity (in vitro); type: biochemical, human; details: ratio of IC50 values
Description: Therefore, a biotinated peptide (biotin-[…]) was produced by referring to the amino acid sequence of the peptide. The purified recombinant human EGFR protein used in the test was purchased from Carna Biosciences, Inc.
Regarding the measurement of the inhibitory activity of the compounds, firstly, the compounds of the present invention were diluted stepwise with DMSO. […] The reaction was terminated by adding EDTA thereto so as to obtain a final concentration of 24 mM. Subsequently, a detection liquid containing Eu-labeled anti-phosphorylated tyrosine antibody PT66 (PerkinElmer, Inc.) and SureLight APC-SA (PerkinElmer, Inc.) was added thereto, and the system was left to stand for 2 hours or longer at room temperature.

TNP-IgE mice = assay: Mouse antigen-induced dermatitis model; type: in vivo; details: from low dose, compared with Reference compound 1
Excerpt: Type I allergy models accompanied by a skin symptom (a dermatitis model) were produced, with TNP-IgE mice (CLEA Japan, Inc.). The mice are genetically modified BALB/c mice that constantly produce an IgE specific to hapten TNP (trinitrophenol) which is widely used as an allergen (antigen). It is possible to induce an allergic reaction in the mice, only by administering an allergen, without carrying out an immunization. […] An average value of thickening values of both ears was obtained as a value of an individual (provided that a previous value before the allergen application was 0 mm).
Ear swelling control ratio (%) was calculated by the following formula. Ear swelling control ratio (%)=(1−(Average value of ear thickening of compound administered group)/(Average value of ear thickening of vehicle administered group))×100

MRL/lpr mice = assay: Mouse systemic lupus erythematosus model; type: in vivo; details: once-daily oral for 42 days, final administration day, FIG. 5
Description: MRL/lpr mice (Japan SLC, Inc.) were used to evaluate drug efficacy in this test, since the mice are widely used as mice models in which symptoms of autoimmune diseases similar to human systemic lupus erythematosus spontaneously express. A grouping was carried out on the basis of swellings of lymph nodes in submaxilla and axilla at 14 weeks old, and once-daily oral administration was continued for 42 days from the day of grouping, with vehicle or Example Compound 13 suspension. Urea nitrogen concentration and anti-dsDNA antibody concentration in peripheral blood at the final administration day were measured.

[1] = system: guinea pig antigen-induced rhinitis model; assay: Guinea pig antigen-induced rhinitis model; type: in vivo; details: single oral administration two hours before antigen induction; 15 and 240 minutes, FIG. 4

Structure (SMILES) | EGFR inhibitory activity IC50 value (nM)/BTK inhibitory activity IC50 value (nM) (EGFR/BTK) | ear swellings induced by the allergen application (TNP-IgE mice) | anti-dsDNA antibody concentration in peripheral blood (MRL/lpr mice) | urea nitrogen concentration in peripheral blood (MRL/lpr mice) | resistance in nasal cavities (change ratio) [1]
C=CC(=O)N1CCC[C@@H](n2nc(C(=O)Nc3nc4cc(C#N)ccc4o3)c3c(N)ncnc32)C1 [Example 6, (R)-1-(1-acryloylpiperidin-3-yl)-4-amino-N-(5-cyanobenzo[d]oxazol-2-yl)-1H-pyrazolo[3,4-d]pyrimidine-3-carboxamide] | 33.3 | suppressed equivalently or strongly ear swellings | – | – | –
C=CC(=O)N1CCC[C@@H](n2nc(C(=O)Nc3nc4ccccc4o3)c3c(N)ncnc32)C1 [Example 13, (R)-1-(1-acryloylpiperidin-3-yl)-4-amino-N-(benzo[d]oxazol-2-yl)-1H-pyrazolo[3,4-d]pyrimidine-3-carboxamide] | – | suppressed equivalently or strongly ear swellings | suppressed | suppressed | suppressed the increase of the resistance in nasal cavities in the early phase and in the late phase in a dose-response fashion
